Source: PubChem BioAssay AID540275 (National Center for Advancing Translational Sciences (NCATS), 2011)
The campaign covered roughly 320,000 compounds. About 620 (0.19%) were called active. The shares of active, inactive and inconclusive entries below differ from those in the screen. No stated cut-off is given here; in the data, active means activation above about 80%; inconclusive means between about 30% and that limit; inactive means weaker than that.

Sequences of proteins named here, by UniProt entry; tags and fusion partners are left off.
UniProt Q8NER1, whole entry, looked up: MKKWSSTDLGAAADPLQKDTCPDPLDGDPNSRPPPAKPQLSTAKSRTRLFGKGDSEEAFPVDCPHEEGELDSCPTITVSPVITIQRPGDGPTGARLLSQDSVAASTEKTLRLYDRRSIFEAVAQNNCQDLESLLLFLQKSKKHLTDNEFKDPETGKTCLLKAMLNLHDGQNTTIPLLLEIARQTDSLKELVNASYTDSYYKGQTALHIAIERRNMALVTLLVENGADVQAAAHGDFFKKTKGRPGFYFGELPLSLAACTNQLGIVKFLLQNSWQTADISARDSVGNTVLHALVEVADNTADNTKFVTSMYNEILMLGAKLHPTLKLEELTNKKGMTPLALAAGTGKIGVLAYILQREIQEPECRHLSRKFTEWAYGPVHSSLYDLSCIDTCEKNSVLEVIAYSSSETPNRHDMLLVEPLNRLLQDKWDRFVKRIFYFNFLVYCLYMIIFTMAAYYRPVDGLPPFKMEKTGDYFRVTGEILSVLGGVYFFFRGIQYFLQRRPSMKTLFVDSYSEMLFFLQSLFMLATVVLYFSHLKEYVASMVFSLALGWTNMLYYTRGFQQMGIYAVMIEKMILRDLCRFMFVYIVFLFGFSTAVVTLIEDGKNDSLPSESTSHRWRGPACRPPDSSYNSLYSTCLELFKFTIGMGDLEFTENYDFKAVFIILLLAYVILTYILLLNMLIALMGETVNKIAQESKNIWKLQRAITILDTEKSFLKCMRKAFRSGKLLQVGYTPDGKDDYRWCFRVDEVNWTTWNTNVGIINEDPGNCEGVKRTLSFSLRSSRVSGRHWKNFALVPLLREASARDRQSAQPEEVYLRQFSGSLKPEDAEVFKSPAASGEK

molecular target: Transient receptor potential cation channel subfamily V member 1 (Homo sapiens) (UniProt Q8NER1); experiment: HTS Assay for Compounds that Act as Agonists of the Vanilloid Receptor 1; conditions: TRPV1-expressing cells, Fluo-8 calcium influx, agonist mode; at 8.33 µM, active compounds read high; further: 0% is about no effect
Summary of the method: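 Fluo-8 calcium influx in TRPV1-expressing cells, kinetic read (ex 480/em 520 nm). Compound added and read 3 min for agonist activity, followed by capsaicin at EC20 final and 2 min further read for enhancement.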

SMILES | activation
COc1ccc(C(CNC(=O)/C=C/c2c(Cl)nc3ccccn23)N(C)C)cc1 (stereo unspecified) | inactive: 1.26%
C=CCN1C(=O)/C(=C/c2ccc(O)c(OC)c2)S/C1=N/c1nccs1 | inconclusive: 46.4%
COc1ccc(C)cc1N(C(=O)c1snc(C(N)=O)c1N)C(C(=O)NC1CCCCC1)c1ccc(C)o1 (stereo unspecified) | inconclusive: 77.8%
Cc1cc(/C=N/NC(=O)c2ccncc2)c(C)n1-c1cccc(C(F)(F)F)c1 | inconclusive: 60%
CC(C)(C)c1ccc(C(=O)c2c[nH]c(C(=O)NCc3cccnc3)c2)cc1 | inconclusive: 56.5%
COc1cc2c(cc1OC)CN(Cc1cc(=O)oc3cc(C)c(C)cc13)CC2 | inconclusive: 55.8%
Cc1cc(C)c(S(=O)(=O)c2ccc(Cl)cc2)c(Cl)n1 | inactive: 1.56%
C=CCn1c(Cc2ccccc2)nc2c(cnn2-c2ccccc2)c1=O | inconclusive: 30.5%
Cc1noc(C)c1COc1ccc(C(=O)Nc2ccccc2)cc1 | inconclusive: 41.6%
O=C(Nc1ccccc1N1CCOCC1)C1CCCCN1S(=O)(=O)c1ccccc1 (stereo unspecified) | inconclusive: 43.8%
CCOC(=O)C1CCCN(Cc2nc(N)nc(Nc3ccc(Cl)cc3)n2)C1 (stereo unspecified) | inactive: 11%
COc1cccc(NC(=O)C(Cc2ccccc2)n2cccc2)c1 (stereo unspecified) | inconclusive: 48%
O=C(Cc1ccc(Br)cc1)Nc1ncc([N+](=O)[O-])s1 | inactive: 0.475%
CCOC(=O)c1[nH]c(C)c(CN(Cc2ccco2)C(=O)C(F)(F)F)c1C | inconclusive: 30.4%
CCN(CC)S(=O)(=O)c1ccc(C(=O)NCCSc2c[nH]c3ccccc23)cc1 | inconclusive: 66.4%
Clc1ccc(-c2nc(NCCCN3CCOCC3)c3ccccc3n2)cc1 | inconclusive: 33.5%
Cc1ccc(NC(=S)N2CCC(c3nc4ccccc4s3)CC2)cc1C | inconclusive: 39.2%
CCN1CCN(C(=O)NC2CC(=O)N(c3ccc(OC)cc3)C2)CC1 (stereo unspecified) | inactive: 2.3%
CCNC(=S)N1CCN(c2nc(CC)nc3sc4c(c23)CCCC4)CC1 | active: 82.5%
CCN(CC(=O)NCCc1ccc(S(N)(=O)=O)cc1)Cc1nc2cc(OC)c(OC)cc2c(=O)[nH]1 | inactive: -2.46%
CCCCC(=O)NC(c1ccc(C(C)C)cc1)c1ccc2cccnc2c1O (stereo unspecified) | inactive: 6.67%
COc1cc(/C=C/C(=O)c2ccc3c(c2)OCO3)cc(Cl)c1O | inconclusive: 79.7%

Rewritten as tab-separated lines: entries from further up.
SMILES	activation
COc1cc2c(cc1OC)CN(Cc1cc(=O)oc3cc(C)c(C)cc13)CC2	inconclusive: 55.8%
Cc1cc(C)c(S(=O)(=O)c2ccc(Cl)cc2)c(Cl)n1	inactive: 1.56%
C=CCn1c(Cc2ccccc2)nc2c(cnn2-c2ccccc2)c1=O	inconclusive: 30.5%
Cc1noc(C)c1COc1ccc(C(=O)Nc2ccccc2)cc1	inconclusive: 41.6%

Remaining list, next part.

SMILES | activation
CCN(CC)c1ccc(/C=C/c2cc(-c3ccccc3)c3ccccc3n2)cc1 | inconclusive: 53.2%
COc1ccccc1-n1c(=O)c2c3c(sc2n2c(SC(C)C)nnc12)CCC3 | inconclusive: 32.5%
CC(C)Cc1ccc(C(=O)NCc2ccc3c(c2)OCO3)o1 | inconclusive: 54.7%
COC(=O)C(C)Oc1cc(OC(C)C(=O)OC)c2c(-c3ccccc3)cc(=O)oc2c1 (stereo unspecified) | inconclusive: 61.3%
CCOC(=O)Cn1c(=NC(=O)C(C)(C)C)sc2cc([N+](=O)[O-])ccc21 | inconclusive: 73.6%
CC(C)(C)c1ccc(C(=O)N2CCN(S(=O)(=O)c3ccc(Br)s3)CC2)cc1 | inconclusive: 41.7%
O=C(NCCC1=CCCCC1)c1cnsn1 | inconclusive: 41.8%
O=C(O)C[C@@H]1C(=O)O[C@@H]2C(COC(=O)c3cc(O)c(O)c(O)c3)O[C@@H](OC(=O)c3cc(O)c(O)c(O)c3)[C@@H](OC(=O)c3cc(O)c(O)c4c3[C@H]1[C@H](O)C(=O)O4)[C@H]2OC(=O)c1cc(O)c(O)c(O)c1 (stereo partly specified) | inactive: 3.33%
CCOCCCNC(=O)CN1C(=O)/C(=C\c2ccc(C)cc2)Sc2ccccc21 | inconclusive: 30.5%
COC(=O)c1sc(C(F)(F)F)c(-c2ccccc2)c1S(=O)(=O)NC(C)(C)C | inconclusive: 53.1%
CC(C)(C)c1ccc(C(=O)NC2CCN(Cc3ccccc3)CC2)cc1 | inconclusive: 31%
CCCNC(=O)C(Cc1ccccc1F)NC(=O)c1ccc(C#N)cc1 (stereo unspecified) | inactive: 17%
Cc1c2ccccc2nc2c(F)c(NC(C)C)c(F)c(F)c12 | inactive: 19.1%
CCCC(=O)NC(c1ccc(OC)cc1)c1ccc2cccnc2c1O (stereo unspecified) | inactive: 4.44%
CC(C(=O)NCCS(=O)(=O)c1ccc(Br)cc1)S(=O)(=O)c1ccc(Cl)cc1 (stereo unspecified) | inactive: -1.03%
CCCCOC(=O)CSc1nc(N)c(C#N)c(-c2ccc(OC)cc2)c1C#N | inactive: 1.98%
CC1C(=O)N(Cc2ccc([N+](=O)[O-])cc2)c2ccccc2N1C(=O)c1c(F)cccc1F (stereo unspecified) | inactive: 5.48%
CSC1=NSC2=NC(=O)/C(=C\c3coc4ccccc4c3=O)C(=N)N12 | inconclusive: 50%
Cc1cc2c(cc1C)C(c1cccc(F)c1)CC(=O)N2 (stereo unspecified) | inconclusive: 38.2%
COc1ccccc1NC(=O)C(C)OC(=O)C1CCC(C(C)(C)C)CC1 (stereo unspecified) | inactive: 2.26%
Cc1ccc(NC(=O)C2CCN(S(=O)(=O)c3ccc(Cl)c(C(F)(F)F)c3)CC2)nc1 | inactive: 23.9%
O=C(Nc1ccccc1C(=O)N/N=C/c1ccc(O)cc1)c1ccccc1 | inconclusive: 74.1%

SMILES | activation
COc1ccccc1Nc1nn2c(=O)c3ccc(C(=O)N4CCCCC4)cc3nc2s1 | inactive: 0.0455%
COc1cccc(-c2noc(C3CCCN(C(=O)c4cccc(F)c4)C3)n2)c1 (stereo unspecified) | inconclusive: 32.5%
CC(C)c1ccc(NC(=O)CSc2n[nH]c(=O)n2Cc2ccco2)cc1 | inconclusive: 54.4%
Cc1ccc(SCC(=O)N2CCOCC2)cc1 | inconclusive: 57.9%
CC(CCc1ccccc1)NC(=O)N1CCOCC1 (stereo unspecified) | inconclusive: 45.7%
Cc1ccc(C(=O)N(C)CCOc2ccccc2)cc1S(=O)(=O)N1CCCCC1 | inconclusive: 31.4%
COc1ccc(C)cc1NC(=O)CSc1ccc(-c2cccnc2)nn1 | inconclusive: 38.1%
C=CCn1c(NS(=O)(=O)c2ccccc2)c(S(=O)(=O)c2ccc(C)cc2)c2nc3ccccc3nc21 | inactive: -2.8%
S=C(c1ccc(-c2cc(Cl)ccc2Cl)o1)N1CCOCC1 | inconclusive: 47.1%
CCOc1cccc2cc(C(=O)Nc3ccccc3-c3ccccc3)c(=O)oc12 | inactive: -0.541%
O=C(N1CCOCC1)N1CCC(NC(=O)C23CC4CC(CC(C4)C2)C3)CC1 | inconclusive: 64%
COc1ccc(C(=O)OCC(=O)NC(Cc2ccccc2)C(C)=O)cc1S(=O)(=O)N1CCCC1 (stereo unspecified) | inactive: 1.22%
COc1ccc(CNC(=S)Nc2cccc(C)c2)cc1 | inconclusive: 31.4%
Cc1cccc(C(=O)Nc2ccc(C(=O)N/N=C/c3ccc4c(c3)OCO4)cc2)c1 | inconclusive: 30.3%
CCCCNC(=O)c1cc2cc(CC)ccc2[nH]1 | inconclusive: 38.4%
Cc1nn(Cc2ccc(F)cc2)c2sc(C(=O)Nc3nccs3)cc12 | inconclusive: 30.6%
CCC(=O)OCCNc1cc(Sc2nccn2C)c2nonc2c1[N+](=O)[O-] | inactive: 0.861%
Cc1ccc(NC(=O)OCc2cncs2)cc1 | inconclusive: 36%
O=C(c1ccccc1)C(c1ccccc1)c1ccccc1 | inactive: 11.4%
CC(C)CCN1C(=O)C2(OCCCO2)c2cc(Cl)ccc21 | inconclusive: 32.5%
COc1cc(C(=S)N2CCOCC2)ccc1OC(=O)c1ccccc1[N+](=O)[O-] | inactive: 8.19%
CC1CCC(NC(=O)c2cc3ccccc3cc2O)CC1 (stereo unspecified) | inconclusive: 33.4%

SMILES | activation
CCOP(=O)(OCC)c1nc(-c2ccc(C)cc2)oc1NCc1ccccc1 | inconclusive: 30.4%
O=c1[nH]c2cc3c(cc2cc1CN(Cc1ccco1)C(=S)NCC1CCCO1)OCCO3 (stereo unspecified) | inactive: 3.79%
CC(CN1CCN(c2ccccc2)CC1)c1ccccc1 (stereo unspecified) | inactive: -3.25%
N#C/C(=C\c1cc2ccccc2nc1N1CCOCC1)C(=O)Nc1ccc(N2CCOCC2)cc1 | inconclusive: 61.5%
O=C(CSCc1ccccc1F)NCc1ccc(F)cc1 | inconclusive: 60.7%
COc1ccc(CNC(=O)CCn2ccc3cc(S(=O)(=O)N4CCCC4)ccc32)cc1 | inconclusive: 31.6%
CN(Cc1ccc(F)cc1)C(=O)c1cc(COc2ccc(F)cc2F)on1 | inconclusive: 33.5%
O=C(NCc1cccc(C(F)(F)F)c1)N1CCN(S(=O)(=O)c2ccccc2F)CC1 | inconclusive: 42.1%
O=C(/C=C/c1cccc(Br)c1)c1ccc2c(c1)OCO2 | inconclusive: 53.7%
COc1ccccc1N1CCN(Cc2c[nH]c3ccccc23)CC1 | inactive: 1.84%
CCOC(=O)c1c(C)[nH]c(C(=O)OC/C(O)=C(\C#N)c2nc3ccccc3[nH]2)c1C | inactive: -2.63%
COc1ccc(NC(=O)COC(=O)CCOc2ccccc2C)cc1Cl | inconclusive: 31.4%
Cc1cccc(NC(=O)c2ccc(N3CCCCC3)c([N+](=O)[O-])c2)n1 | inconclusive: 60.6%
CN(c1ccc(C(=O)N2CCOCC2)cc1[N+](=O)[O-])C1CCCCC1 | inconclusive: 63.5%
O=C(Nc1ccccc1F)C1CC1c1ccccc1 (stereo unspecified) | inconclusive: 37.5%
C/C(=N\NC(=O)c1ccncc1)c1ccc(N2CCOCC2)cc1 | inactive: -2.2%
Cc1snc(SCC(=O)c2ccc(F)cc2)c1C#N | inconclusive: 63.6%
Cc1ccc(NS(=O)(=O)c2ccc(NC(=O)CSc3ccc(Cl)cc3)cc2)c(C)c1 | inactive: 2.49%
COc1cccc(OC)c1C(=O)OCC(=O)NCCCc1ccccc1 | inconclusive: 32.1%
c1ccc(-c2cnnc(N3CCCCC3)n2)cc1 | inconclusive: 47.1%

As entered above.
For activation, COc1ccccc1N1CCN(Cc2c[nH]c3ccccc23)CC1 has the entry inactive: 1.84%
For activation, N#C/C(=C\c1cc2ccccc2nc1N1CCOCC1)C(=O)Nc1ccc(N2CCOCC2)cc1 has the entry inconclusive: 61.5%
